# Some of these results come from one statement about several compounds together.
# Target: T1, Human N-terminal recombinant Hsp90 protein (region of amino acids 9 to 236) (Homo sapiens, UniProt P07900)
# T1 construct: region of amino acids 9 to 236; made in house
# Assay: Hsp90 protein binding assay (competition with biotinylated Radicicol)
# Conditions: at concentrations of at most 10 μmol/L
row,Compound,inhibition of the binding of biotinylated Radicicol to the Hsp90 protein
1,"CCc1c(O)cc(O)c(-c2cccc(OCCN3CCOCC3)c2)c1CCOCC(O)CO (stereo not drawn) [Compound 195, 5-[2-(2,3-Dihydroxypropoxy)ethyl]-6-ethyl-4-[3-(2-morpholinoethoxy)phenyl]benzene-1,3-diol]",at least 30%
2,"CCc1c(O)cc(O)c(-c2ccccc2)c1CCN1C(=O)OCC1C(=O)OC (stereo not drawn) [Compound 319, Methyl 3-[2-(2-ethyl-3,5-dihydroxy-6-phenylphenyl)ethyl]-2-oxo-1,3-oxazolidine-4-carboxylate]",at least 30%
3,"CCc1c(O)cc(O)c(-c2cccc(OC)c2)c1CCOCCOC [Compound 138, 6-Ethyl-5-[2-(2-methoxyethoxy)ethyl]-4-(3-methoxyphenyl)benzene-1,3-diol]",at least 30%
4,"CCc1c(O)cc(O)c(-c2ccccc2)c1CCC(=O)NCCO [Compound 220, 3-(2-Ethyl-3,5-dihydroxy-6-phenylphenyl)-N-(2-hydroxyethyl)propanamide]",at least 30%
5,"COC(=O)Cc1cc(O)cc(O)c1-c1cccc(C(C)=O)c1 [Compound 8, Methyl 2-(3-acetylphenyl)-3,5-dihydroxyphenylacetate]",at least 30%
6,"Oc1cc(O)c(-c2ccccc2)c(COCc2ccccc2)c1Br [Compound 25, 5-(Benzyloxymethyl)-6-bromo-4-phenylbenzene-1,3-diol]",at least 30%
7,"CCc1c(O)cc(O)c(-c2ccccc2)c1CCOCc1cccnc1 [Compound 188, 6-Ethyl-4-phenyl-5-[2-(pyridin-3-ylmethoxy)ethyl]benzene-1,3-diol]",at least 30%
8,"CCc1c(O)cc(O)c(-c2cccc(O)c2)c1CCOC [Compound 171, 6-Ethyl-4-(3-hydroxyphenyl)-5-(2-methoxyethyl)benzene-1,3-diol]",at least 30%
9,"COC(=O)Cc1cc(O)cc(O)c1-c1cccc(CCC(C)=O)c1 [Compound 5, Methyl 2-[3-(2-acetylethyl)phenyl]-3,5-dihydroxyphenylacetate]",at least 30%
10,"CCc1c(O)cc(O)c(-c2cccc(NC(C)=O)c2)c1CC1O[C@@H](CO)[C@H](CO)O1 [Compound 284, 4-[3-(acetylamino)phenyl]-5-{[(4S,5S)-4,5-bis(hydroxymethyl)-1,3-dioxolan-2-yl]methyl}-6-ethylbenzene-1,3-diol]",at least 30%
11,"CCc1c(O)cc(O)c(-c2ccccc2)c1CCCOC(CO)CO [Compound 163, 5-{3-[Bis(hydroxymethyl)methoxy]propyl}-6-ethyl-4-phenylbenzene-1,3-diol]",at least 30%
12,"CCc1c(O)cc(O)c(-c2ccccc2)c1CCOCC(N)=O [Compound 155, 2-[2-(2-Ethyl-3,5-dihydroxy-6-phenylphenyl)ethoxy]acetamide]",at least 30%
13,"CCc1c(O)cc(O)c(-c2ccc(OC)c(OC)c2)c1CCOCCO [Compound 309, 6-Ethyl-5-[2-(2-hydroxyethoxy)ethyl]-4-(3,4-dimethoxyphenyl)benzene-1,3-diol]",at least 30%
14,"CCc1c(O)cc(O)c(-c2ccccc2)c1CCC(O)C(O)CO (stereo not drawn) [Compound 181, 6-Ethyl-4-phenyl-5-(3,4,5-trihydroxypentyl)benzene-1,3-diol]",at least 30%
15,"CCc1c(O)cc(O)c(-c2cccc(O)c2)c1CC1O[C@H](CO)[C@@H](CO)O1 [Compound 298, 5-{[(4R,5R)-4,5-Bis(hydroxymethyl)-1,3-dioxolan-2-yl]methyl}-6-ethyl-4-(3-hydroxyphenyl)benzene-1,3-diol]",at least 30%
16,"CCc1c(O)cc(O)c(-c2cccc(NS(=O)(=O)c3ccc(C)cc3)c2)c1CCOCC(O)CO (stereo not drawn) [Compound 203, 5-[2-(2,3-Dihydroxypropoxy)ethyl]-6-ethyl-4-{3-[N-(4-tolylsulfonyl)amino]phenyl}benzene-1,3-diol]",at least 30%
17,"CCc1c(O)cc(O)c(-c2cccc(C(=O)NC)c2)c1CC1O[C@H](CO)[C@@H](CO)O1 [Compound 294, 5-{[(4R,5R)-4,5-Bis(hydroxymethyl)-1,3-dioxolan-2-yl]methyl}-6-ethyl-4-[3-(methylcarbamoyl)phenyl]benzene-1,3-diol]",at least 30%
18,"CCc1c(O)cc(O)c(-c2cccc(-c3ccccc3)c2)c1CCOC [Compound 132, 6-Ethyl-5-(2-methoxyethyl)-4-(3-phenylphenyl)benzene-1,3-diol]",at least 30%
19,"CCc1c(O)cc(O)c(-c2ccccc2)c1CC(=O)N(CCO)CCCOC [Compound 322, 2-(2-Ethyl-3,5-dihydroxy-6-phenylphenyl)-N-(2-hydroxyethyl)-N-(3-methoxypropyl)acetamide]",at least 30%
20,"CCc1c(O)cc(O)c(-c2cccc(OC)c2)c1CCO [Compound 143, 6-Ethyl-5-(2-hydroxyethyl)-4-(3-methoxyphenyl)benzene-1,3-diol]",at least 30%
21,"CCc1c(O)cc(O)c(-c2ccccc2)c1CCCOCCO [Compound 162, 6-Ethyl-5-[3-(2-hydroxyethoxy)propyl]-4-phenylbenzene-1,3-diol]",at least 30%
22,"CN(C)CCNC(=O)Cc1c(Br)c(O)cc(O)c1-c1ccccc1 [Compound 9, 2-(2-Bromo-3,5-dihydroxy-6-phenylphenyl)-N-[2-(dimethylamino)ethyl]acetamide]",at least 30%
23,"CCc1c(O)cc(O)c(-c2ccccc2)c1CCC(O)CC(O)CO (stereo not drawn) [Compound 169, 6-Ethyl-4-phenyl-5-(3,5,6-trihydroxyhexyl)benzene-1,3-diol]",at least 30%
24,"CCc1c(O)cc(O)c(-c2cccc(OCc3ccccn3)c2)c1CCOCC(O)CO (stereo not drawn) [Compound 190, 5-[2-(2,3-Dihydroxypropoxy)ethyl]-6-ethyl-4-[3-(pyridin-2-ylmethyloxy)phenyl]benzene-1,3-diol]",at least 30%
25,"NC(=O)c1c(Br)c(O)cc(O)c1-c1ccccc1 [Compound 50, 2-Bromo-3,5-dihydroxy-6-phenylbenzamide]",at least 30%
26,"CCc1c(O)cc(O)c(-c2cccc(NC(=O)c3ccccc3)c2)c1CCOCC(O)CO (stereo not drawn) [Compound 205, 4-[3-(N-benzoylamino)phenyl]-5-[2-(2,3-dihydroxypropoxy)ethyl]-6-ethylbenzene-1,3-diol]",at least 30%
27,"CCc1c(O)cc(O)c(-c2ccccc2)c1CC1O[C@H](CO)[C@@H](CO)O1 [Compound 218, 5-{[(4R,5R)-4,5-bis(hydroxymethyl)-1,3-dioxolan-2-yl]methyl}-6-ethyl-4-phenylbenzene-1,3-diol]",at least 30%
